One substance from patent US20200248271A1 can be followed below.

Chains of the proteins cited; added tags and fusions are not shown. Residues count along the entry.
UniProt P27986, residues 2-724: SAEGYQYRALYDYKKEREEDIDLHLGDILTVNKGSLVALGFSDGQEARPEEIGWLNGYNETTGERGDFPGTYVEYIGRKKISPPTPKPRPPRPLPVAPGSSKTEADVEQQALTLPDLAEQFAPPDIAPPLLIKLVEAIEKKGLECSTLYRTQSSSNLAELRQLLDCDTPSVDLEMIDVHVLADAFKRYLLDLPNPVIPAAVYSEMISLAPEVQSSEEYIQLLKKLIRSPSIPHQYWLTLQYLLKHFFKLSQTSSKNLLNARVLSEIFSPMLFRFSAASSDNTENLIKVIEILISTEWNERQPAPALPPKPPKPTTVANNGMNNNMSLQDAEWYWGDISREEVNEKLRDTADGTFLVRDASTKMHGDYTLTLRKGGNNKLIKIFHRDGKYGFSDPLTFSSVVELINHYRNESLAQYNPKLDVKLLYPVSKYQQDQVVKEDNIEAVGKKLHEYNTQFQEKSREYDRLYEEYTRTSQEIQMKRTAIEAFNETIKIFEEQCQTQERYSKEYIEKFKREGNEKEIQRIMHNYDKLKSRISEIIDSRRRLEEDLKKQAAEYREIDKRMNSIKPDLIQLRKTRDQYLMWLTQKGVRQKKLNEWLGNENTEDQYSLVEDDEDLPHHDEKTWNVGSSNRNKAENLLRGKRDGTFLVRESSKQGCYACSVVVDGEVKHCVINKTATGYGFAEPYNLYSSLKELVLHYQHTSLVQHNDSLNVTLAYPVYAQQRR
UniProt P35568: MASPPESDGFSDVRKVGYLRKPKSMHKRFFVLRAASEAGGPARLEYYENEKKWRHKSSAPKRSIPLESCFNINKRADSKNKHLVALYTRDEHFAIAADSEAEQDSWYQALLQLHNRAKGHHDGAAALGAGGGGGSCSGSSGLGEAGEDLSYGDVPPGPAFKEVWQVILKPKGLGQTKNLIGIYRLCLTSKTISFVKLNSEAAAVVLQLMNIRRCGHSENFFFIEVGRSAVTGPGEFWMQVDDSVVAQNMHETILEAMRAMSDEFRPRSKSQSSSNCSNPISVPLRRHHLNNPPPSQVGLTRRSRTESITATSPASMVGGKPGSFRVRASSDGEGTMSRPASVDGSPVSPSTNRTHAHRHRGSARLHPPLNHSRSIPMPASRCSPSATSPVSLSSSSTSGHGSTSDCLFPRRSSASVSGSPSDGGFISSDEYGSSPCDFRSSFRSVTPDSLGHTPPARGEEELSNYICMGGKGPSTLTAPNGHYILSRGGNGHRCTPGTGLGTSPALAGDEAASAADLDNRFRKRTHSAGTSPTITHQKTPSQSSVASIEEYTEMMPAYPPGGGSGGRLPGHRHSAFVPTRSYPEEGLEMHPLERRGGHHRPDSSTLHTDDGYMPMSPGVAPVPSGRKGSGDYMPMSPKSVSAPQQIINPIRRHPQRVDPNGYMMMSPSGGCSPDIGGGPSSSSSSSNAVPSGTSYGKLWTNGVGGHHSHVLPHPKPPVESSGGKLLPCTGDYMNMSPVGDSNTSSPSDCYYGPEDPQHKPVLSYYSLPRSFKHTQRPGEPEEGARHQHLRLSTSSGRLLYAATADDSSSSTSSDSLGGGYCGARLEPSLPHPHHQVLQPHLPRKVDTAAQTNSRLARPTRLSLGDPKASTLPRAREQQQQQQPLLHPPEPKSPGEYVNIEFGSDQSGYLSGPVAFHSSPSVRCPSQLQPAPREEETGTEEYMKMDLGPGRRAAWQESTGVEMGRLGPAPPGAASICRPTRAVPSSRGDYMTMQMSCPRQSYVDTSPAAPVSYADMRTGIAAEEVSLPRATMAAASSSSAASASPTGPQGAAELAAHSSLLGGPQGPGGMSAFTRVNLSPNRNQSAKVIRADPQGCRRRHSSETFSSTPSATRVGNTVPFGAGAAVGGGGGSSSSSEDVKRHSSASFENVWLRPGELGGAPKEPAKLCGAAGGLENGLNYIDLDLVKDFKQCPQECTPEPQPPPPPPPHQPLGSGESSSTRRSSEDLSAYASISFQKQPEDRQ

The assay has as its target regulatory subunit (p85) of PI3K (human) (UniProt P27986). Nature of the assay: co-immunoprecipitation and immunoblotting, lysate of CDK12-overexpressing ZR-75-30 cells. (In western blotting, separated proteins are transferred to a membrane and probed.)

Results are given in words; binding and its absence hold for the method and conditions named. In cells and extracts the contact can be indirect. Some binding calls cover weakened binding; strength is not graded here.

Consider “insulin receptor substrate 1 (IRS1) (from UniProt P35568 1-1242)”, for which the binding entry was “binds”.
